Assay [1] concerns the target T1, VAP27-1, luciferase complementation fusion (Arabidopsis thaliana) (UniProt Q8VZ95).
T1 sequence: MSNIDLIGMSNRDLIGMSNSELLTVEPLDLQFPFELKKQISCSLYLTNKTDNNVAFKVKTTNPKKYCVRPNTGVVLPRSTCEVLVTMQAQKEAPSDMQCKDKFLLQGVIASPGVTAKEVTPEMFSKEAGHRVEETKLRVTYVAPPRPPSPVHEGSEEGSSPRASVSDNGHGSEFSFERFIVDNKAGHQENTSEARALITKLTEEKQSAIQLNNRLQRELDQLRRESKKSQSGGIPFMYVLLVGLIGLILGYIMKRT
Kind of assay: split reporter.

For assay [2], the target named is T2, VAP27-1-GFP, from the 35S:VAP27-1-GFP transgenic plant (Arabidopsis thaliana) (UniProt Q8VZ95).
T2 sequence: T1 sequence
Kind of assay: co-IP.

Assay [3] has as its target T3, RGS1-YFP, from the 35S::RGS1-YFP transgenic line (Arabidopsis thaliana) (UniProt Q8H1F2).
T3 sequence: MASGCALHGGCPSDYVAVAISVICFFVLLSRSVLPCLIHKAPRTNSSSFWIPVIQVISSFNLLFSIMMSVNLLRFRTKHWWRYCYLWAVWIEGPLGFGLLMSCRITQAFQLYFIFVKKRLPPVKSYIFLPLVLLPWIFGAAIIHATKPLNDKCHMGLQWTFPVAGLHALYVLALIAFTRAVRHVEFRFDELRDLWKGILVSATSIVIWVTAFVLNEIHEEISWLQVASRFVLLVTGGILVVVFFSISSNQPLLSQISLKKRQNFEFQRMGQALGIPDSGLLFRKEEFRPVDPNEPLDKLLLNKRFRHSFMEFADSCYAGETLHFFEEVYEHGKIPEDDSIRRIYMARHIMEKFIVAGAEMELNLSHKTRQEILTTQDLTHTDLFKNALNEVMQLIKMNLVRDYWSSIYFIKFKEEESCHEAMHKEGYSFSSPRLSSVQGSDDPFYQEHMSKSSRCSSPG
Kind of assay: co-IP.

Assay [4] concerns the target GST-VAP27-1 (Arabidopsis thaliana) (UniProt Q8VZ95). The assay is described as follows: pull-down.

These are yes or no findings as the source states them, for the method shown. Binding seen in cells or lysates may run through a third protein. For some of these results: A result given as binding can be weak or reduced; the word gives no strength. Tags and fused reporters may be left off the sequences shown.

For “ORP2AS (ORP2A Short), luciferase complementation fusion (Arabidopsis thaliana)”, the binding result in assay [1] is listed as “binds”.
As for “ORP2AS-3×Flag (ORP2A Short), from the 35S::ORP2Ag-3Flag transgenic line (Arabidopsis thaliana)”, the binding result in assay [2] is “binds”; in assay [3], “no binding”.

B1: ORP2A-3×Flag (Full-Length), from the 35S::ORP2Ag-3Flag transgenic line (protein, UniProt Q940Y1 1-721)
chain: MRVKELHPLCCITLESPHGINSQSPEEPVTTALTRSRSLPAKSLTGGSESETVAGILYKWTNFGKGWRSRWFLLRNGILSYSKIRRPENLNLLSPDDDVRLIGDISGERLSRMDSCSGRRKQQKTVGIVHLKVSSFRESKSDDRKFYIFTATKTLHLRTDSITDRAAWLQALASTKCIFPLRSLNGDFSFIPPKDLSISTERLKKRLHEEGMNENLVKECEQIMLSEFSEMHGQVKLLHEERTNLLDALRQLEAANLEVGASGKHEFSSLGRGKYSECSTTASSDGKQEFEDVSEEDEPSFHDTKEFFNEPNIGSESNLAISGHTDIKRRTKLPDPAEKEKGVSLWSMIKDNVGKDLTRVCLPVYFNEPISSLQKCFEDLEYSYLLDRAYEHGKSGNGLLRALNVAAFAVSGYASTEGRHCKPFNPLLGETYEADFPEKGIRFFSEKVSHHPTVIACHCEGKGWKFWGDTNLRSKFWGRSIQVEPVGVLTLEFDDGEVFQWSKVTSTIYNIILGKLYCDHHGVMQIRGNRQYSCTLKFKEQSILERNPHQVNGFVEDVAGQKAATIFGKWDDSLYYVAGDGINKSKVSDPASNASLLWKRTKPPPNVTRYNLTSFAITLNELTPGLQEILPPTDSRLRPDQRHLENGEYEKANLEKQRLERRQRMSRQLQESGWRPRWFERQGESDTFKYTGGYWEARGHRNWDDCPDIFGEFTEELADAA
As for B1, the binding result in assay [4] was “binds”.

Source of the values: doi:10.1101/2022.11.23.517591.
